Reference: publication PMC9265697
These are yes or no findings as the source states them, for the method shown. In cells and extracts the contact can be indirect. These calls come from enrichment with a bait or labelling near it, and not all partners need be listed.

By UniProt entry, the sequences of proteins in these tests, tags left out.
UniProt Q64727: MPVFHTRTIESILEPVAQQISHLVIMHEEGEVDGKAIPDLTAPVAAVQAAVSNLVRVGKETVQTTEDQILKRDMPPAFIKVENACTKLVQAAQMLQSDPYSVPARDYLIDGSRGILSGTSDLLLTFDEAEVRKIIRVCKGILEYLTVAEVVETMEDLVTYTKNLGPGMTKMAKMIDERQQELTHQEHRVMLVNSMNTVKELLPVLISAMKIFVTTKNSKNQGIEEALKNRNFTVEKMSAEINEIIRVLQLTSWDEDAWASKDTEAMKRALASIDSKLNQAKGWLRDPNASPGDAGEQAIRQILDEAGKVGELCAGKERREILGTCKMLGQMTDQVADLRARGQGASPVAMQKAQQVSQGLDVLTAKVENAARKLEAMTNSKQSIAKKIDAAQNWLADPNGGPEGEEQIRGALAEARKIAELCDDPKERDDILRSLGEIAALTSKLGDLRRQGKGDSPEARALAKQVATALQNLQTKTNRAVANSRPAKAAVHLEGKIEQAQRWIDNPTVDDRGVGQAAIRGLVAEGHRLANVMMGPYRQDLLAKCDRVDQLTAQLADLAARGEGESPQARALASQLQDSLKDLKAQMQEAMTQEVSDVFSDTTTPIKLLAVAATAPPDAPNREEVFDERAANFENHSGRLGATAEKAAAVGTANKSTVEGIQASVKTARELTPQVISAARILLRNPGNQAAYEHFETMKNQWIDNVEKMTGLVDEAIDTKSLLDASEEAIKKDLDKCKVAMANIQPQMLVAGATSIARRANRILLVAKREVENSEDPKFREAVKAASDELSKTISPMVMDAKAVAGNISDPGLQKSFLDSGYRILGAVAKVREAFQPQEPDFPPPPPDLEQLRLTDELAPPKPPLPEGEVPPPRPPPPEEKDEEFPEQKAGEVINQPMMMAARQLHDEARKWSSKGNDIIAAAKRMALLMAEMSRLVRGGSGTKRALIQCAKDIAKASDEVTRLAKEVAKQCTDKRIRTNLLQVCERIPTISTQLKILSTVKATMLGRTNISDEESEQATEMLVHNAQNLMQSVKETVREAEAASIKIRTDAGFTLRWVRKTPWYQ

B1: Psmd12 (protein, UniProt Q9D8W5 1-456)
chain: MADGGSERADGRIVKMEVDYSATVDQRLPECEKLAKEGRLQEVIETLLSLEKQTRTASDMVSTSRILVAVVKMCYEAKEWDLLNENIMLLSKRRSQLKQAVAKMVQQCCTYVEEITDLPVKLRLIDTLRMVTEGKIYVEIERARLTKTLATIKEQNGDVKEAASILQELQVETYGSMEKKERVEFILEQMRLCLAVKDYIRTQIISKKINTKFFQEENTENLKLKYYNLMIQLDQHEGSYLSICKHYRAIYDTPCIQAESDKWQQALKSVVLYVILAPFDNEQSDLVHRISSDKKLEEIPKYKDLLKLFTTMELMRWSTLVEDYGVELRKGSSETPATDVFSSTEEGEKRWKDLKSRVVEHNIRIMAKYYTRITMKRMAQLLDLSVDESEAFLSNLVVNKTIFAKVDRLAGVINFQRPKDPNNLLNDWSQKLNSLMSLVNKTTHLIAKEEMIHNLQ
B2: Psmd13 (protein, UniProt Q9WVJ2 1-376)
chain: MKDVPAFLQQSQSSGPGQAAVWHRLEELYTKKLWHQLTLEVLDFVQDPCFAQGDGLIKLYENFISEFEHRVNPLSLVEIILHVVRQMTDPNVALTFLEKTREKVKSSDEAVILCKTAIGALKLNIGDLQATKETIEDVEEMLNNLPGVTSVHSRFYDLSSKYYQTIGNHASYYKDALRFLGCVDIKDLPVSEQQERAFTLGLAGLLGEGVFNFGELLMHPVLESLRDTDRQWLIDTLYAFNSGAVDRFQTLKCAWGQQPDLAANEAQLLRKIQLLCLMEMTFTRPANHRQLTFEEIAKSAKITVNKVELLVMKALSVGLVRGSIDEVDKRVHMTWVQPRVLDLQQIKGMKDRLELWCTDVKSMEMLVEHQAQDILT
B3: ubiquitin carboxy-terminal hydrolase type 3 (protein, UniProt Q9JKB1 1-230)
chain: MEGQRWLPLEANPEVTNQFLKQLGLHPNWQFVDVYGMEPELLSMVPRPVCAVLLLFPITEKYEVFRTEEEEKIKSQGQDVTSSVYFMKQTISNACGTIGLIHAIANNKDKMHFESGSTLKKFLEESVSMSPEERAKFLENYDAIRVTHETSAHEGQTEAPSIDEKVDLHFIALVHVDGHLYELDGRKPFPINHGKTSDETLLEDAIEVCKKFMERDPDELRFNAIALSAA

Target: Vinculin (mouse (endogenous in testicular cells and primary spermatocytes)) (UniProt Q64727)
Test: affinity purification with mass spectrometry; co-IP of endogenous VCL with polyclonal anti-Vinculin antibody (ab91459) and Protein A Dynabeads, overnight at 4 °C, from whole-cell/cytoplasmic (Cl) and nuclear (Nu) extracts of mouse testicular single-cell suspension and FACS-sorted primary (pachytene) spermatocytes; rabbit IgG isotype control; on-bead trypsin digest, nLC-MS2, label-free quantification

| binding | Binder |
| --- | --- |
| binds | B1 |
| binds | B2 |
| binds | B3 |
